Assay results as given in publication PMC10082586 (Cancer chemotherapy and pharmacology, 2022).
Where two headings read alike, the source gives them in different places.

Tests used:
[1] = Balb/c, mouse, in vivo
[2] = mouse, in vivo
in vivo [3] = conditions: Balb/c, mouse, iv, 4 mg/kg
in vivo [4] = conditions: Balb/c, mouse, po, 10 mg/kg
in vitro = conditions: Balb/c, mouse, plasma

SMILES: C[C@@H]1COCCN1c1cc(-c2ccnn2C)c2ccnc(-c3ccn[nH]3)c2n1 [BAY-1895344]
- Administered drug recovered unaltered in urine [1]: < 0.1%
- Half-life of PO treated mice greater than IV half-life [1]: 50-100%
- Lung and kidney partitioning, PO treated groups higher than IV group [1]: approximately 50%
- 0-24h feces ([1]; iv, 4 mg/kg): 1.04 % dose
- 0-24h urine ([1]; iv, 4 mg/kg): 0.102 % dose
- 0-24h feces ([1]; po, 1 mg/kg): 1.91 % dose
- 0-24h urine ([1]; po, 1 mg/kg): 0.0238 % dose
- Vd ([1]; po, 1 mg/kg): 122 L/kg
- 0-24h feces ([1]; po, 4 mg/kg): 2.45 % dose
- 0-24h urine ([1]; po, 4 mg/kg): 0.0150 % dose
- Vd ([1]; po, 4 mg/kg): 77.7 L/kg
- 0-24h feces ([1]; po, 10 mg/kg): 1.82 % dose
- 0-24h urine ([1]; po, 10 mg/kg): 0.0129 % dose
- Vd ([1]; po, 10 mg/kg): 78.4 L/kg
- 0-24h feces ([1]; po, 40 mg/kg): 5.20 % dose
- 0-24h urine ([1]; po, 40 mg/kg): 0.0314 % dose
- Vd ([1]; po, 40 mg/kg): 24.2 L/kg
- Bone marrow partitioning compared to AZD6738 ([2]; Balb/c): approximately 50%
- Brain and spinal cord partitioning higher than AZD6738 ([2]; Balb/c): ~ 10 fold
- 0-24h feces ([2]; Balb/c, po, 10 mg/kg): 1.16 % dose
- 0-24h urine ([2]; Balb/c, po, 10 mg/kg): 0.0192 % dose
- Cl ([2]; Balb/c, po, 10 mg/kg): 278 mL/min/kg
- Vd ([2]; Balb/c, po, 10 mg/kg): 43.2 L/kg
- Draining lymph node partitioning compared to AZD6738 [2]: two-fold higher
- Esophagus partitioning compared to AZD6738 [2]: four-fold higher
- Vd (in vivo [3]): 7.31 L/kg
- clearance (in vivo [3]): 55.8 mL/min/kg
- half-life (in vivo [4]): 1.8 h
- AUC(0-t) (in vivo [4]; AUC0-360): 512 ng·h/mL
- fraction unbound at 16 h, 50 ng/mL (in vitro): 0.166
- fraction unbound at 16 h, 5000 ng/mL (in vitro): 0.198
